Measured values from PubChem BioAssay AID488837 (National Center for Advancing Translational Sciences (NCATS), 2010).
The campaign covered roughly 330,000 compounds. About 20 (0.006%) were called active. Inconclusive means that the source gave no clear call. Such entries were picked first, then a sample of the others. The call rests on the fitted dose curve; in most records, active means well fitted inhibition curve with a large enough effect; inconclusive means small, poorly fitted or top-dose-only effect, or effect the other way; inactive means flat fitted curve, though single readings scatter. Potencies beside an inconclusive call are fits to weak or partial responses and may not hold up.

By UniProt entry, the sequences of proteins in these tests, tags left out. Where a name states a change or a piece, a line headed by the entry shows the natural chain unless it says otherwise.
UniProt O00167: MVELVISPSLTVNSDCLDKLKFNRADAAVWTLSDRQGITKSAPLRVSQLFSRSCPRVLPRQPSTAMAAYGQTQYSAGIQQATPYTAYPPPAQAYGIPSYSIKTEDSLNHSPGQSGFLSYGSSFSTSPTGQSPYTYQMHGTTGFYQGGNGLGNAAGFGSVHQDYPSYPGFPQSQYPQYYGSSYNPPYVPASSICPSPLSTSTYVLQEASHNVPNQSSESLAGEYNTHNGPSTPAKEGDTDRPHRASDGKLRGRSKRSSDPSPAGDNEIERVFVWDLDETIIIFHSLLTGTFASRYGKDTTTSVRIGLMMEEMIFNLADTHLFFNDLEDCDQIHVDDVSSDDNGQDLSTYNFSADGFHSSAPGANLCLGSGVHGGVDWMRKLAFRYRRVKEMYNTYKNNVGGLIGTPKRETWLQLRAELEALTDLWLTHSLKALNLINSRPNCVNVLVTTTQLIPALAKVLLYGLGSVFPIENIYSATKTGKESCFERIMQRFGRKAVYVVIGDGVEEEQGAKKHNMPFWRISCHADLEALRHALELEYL

These compounds were tested against Protein phosphatase EYA2 (Homo sapiens) (UniProt O00167) (assay: qHTS Assay for Inhibitors of the Phosphatase Activity of Eya2). Conditions: recombinant Eya2, OMFP fluorescence dephosphorylation (OMFP is methylfluorescein phosphate); activity, negative = inhibition: at 76.9 µM (top of the series) unless noted.
Method in brief: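 Eya2 (0.2 uM) preincubated 10 min at ambient with compound, then OMFP substrate added at 50 uM; 10 min reaction in 50 mM HEPES pH 7.5, 50 mM NaCl, 5 uM MgCl2, 0.05% BSA, 1 mM DTT. Fluorescence read at Ex 485/Em 525 nm.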
On the % scale 0 is the no-effect control and ±100 the full control effect; potency means the concentration at half of the fitted maximal effect.

| SMILES | Potency | activity, negative = inhibition |
| --- | --- | --- |
| c1cnc(-c2noc(CN3CCN(C4CCCC4)CC3)n2)cn1 | inconclusive: 100 µM [inhibitor, single point] |  |
| O=C1Nc2ccccc2C1=Nc1ccc(S(=O)(=O)Nc2nccs2)cc1 | inconclusive: 100 µM [inhibitor, single point] |  |
| O=C(Nc1nccs1)c1ccc2ccccc2n1 | inconclusive: 17.8 µM [inhibitor, single point] |  |
| CCS(=O)(=O)N1CCN(CC(=O)NC2CCCCC2)CC1 | inconclusive: 200 µM [inhibitor, partial curve] |  |
| O=C(O)CSCC(=O)N1CCc2c([nH]c3ccccc23)C1C(F)(F)F (stereo not drawn) | inconclusive: 89.1 µM [inhibitor, single point] |  |
| O=C(CCC(=O)N1CCN(c2ccccc2)CC1)Nc1nnc(C2CCCCC2)s1 | inconclusive: 79.4 µM [inhibitor, single point] |  |
| CC1=NOC(=O)/C1=C/c1ccc(O)c(Cl)c1 | inconclusive: 100 µM [inhibitor, single point] |  |
| O=C1c2ccccc2C2(c3ccccc3)N1CCN2C(=O)C(Cl)(Cl)Cl (stereo not drawn) |  | inactive: -2.07% |
| COc1cc(C2c3c([nH]c(=O)[nH]c3=O)Nc3ccc4ccccc4c32)ccc1O (stereo not drawn) | inconclusive: 100 µM [inhibitor, partial curve, poor fit] |  |
| CC1CC(C)(C)NC(=S)N1CCCC(=O)Nc1ccc(Br)cc1 (stereo not drawn) | inconclusive: 89.1 µM [inhibitor, single point] |  |
| COc1ccc(C2=NOC(C(=O)Nc3ccc(C(C)=O)cc3)C2)cc1OC (stereo not drawn) | inconclusive: 20 µM [inhibitor, single point] |  |
| O=C(O)c1c(NC(=O)N(CCO)Cc2ccccc2)sc2c1CCCC2 | inconclusive: 89.1 µM [inhibitor, single point] |  |
| O=S(=O)(c1ccc(SCCO)nc1)N1CCOCC1 | inconclusive: 28.2 µM [inhibitor, partial curve, poor fit] |  |
| CCC(C)NC(=S)N1CCN(C(c2ccccc2)c2ccccc2)CC1 (stereo not drawn) |  | inactive: -2.09% |
| COCCCNC(=O)c1ccccc1N(Cc1ccccc1)S(=O)(=O)c1ccc(OC)cc1 | inconclusive: 22.4 µM [inhibitor, single point] |  |
| CCN1CCN(C(C)CCc2ccccc2)CC1 (stereo not drawn) | inconclusive: 22.4 µM [inhibitor, single point] |  |
| Cc1ccc(OCCn2cc(/C=C/C(=O)O)c3ccccc32)cc1 | inconclusive: 89.1 µM [inhibitor, single point] |  |
| COc1ccc(C(=O)CN2CCN(S(=O)(=O)c3cccc([N+](=O)[O-])c3)CC2)cc1OC |  | inactive: -16.2% |

Whole records from above.
`c1cnc(-c2noc(CN3CCN(C4CCCC4)CC3)n2)cn1` as listed: Potency: inconclusive: 100 µM [inhibitor, single point]
`COc1cc(C2c3c([nH]c(=O)[nH]c3=O)Nc3ccc4ccccc4c32)ccc1O` (stereo not drawn) as listed: Potency: inconclusive: 100 µM [inhibitor, partial curve, poor fit]
